Results published in PMC4499153.
These are yes or no findings as the source states them, for the method shown. Binding seen in cells or lysates may run through a third protein. Tags and fused reporters may be left off the sequences shown.

Biological target: T1, FLAG-tagged AFF1, full length (aa 1-1210), P51825
T1 chain: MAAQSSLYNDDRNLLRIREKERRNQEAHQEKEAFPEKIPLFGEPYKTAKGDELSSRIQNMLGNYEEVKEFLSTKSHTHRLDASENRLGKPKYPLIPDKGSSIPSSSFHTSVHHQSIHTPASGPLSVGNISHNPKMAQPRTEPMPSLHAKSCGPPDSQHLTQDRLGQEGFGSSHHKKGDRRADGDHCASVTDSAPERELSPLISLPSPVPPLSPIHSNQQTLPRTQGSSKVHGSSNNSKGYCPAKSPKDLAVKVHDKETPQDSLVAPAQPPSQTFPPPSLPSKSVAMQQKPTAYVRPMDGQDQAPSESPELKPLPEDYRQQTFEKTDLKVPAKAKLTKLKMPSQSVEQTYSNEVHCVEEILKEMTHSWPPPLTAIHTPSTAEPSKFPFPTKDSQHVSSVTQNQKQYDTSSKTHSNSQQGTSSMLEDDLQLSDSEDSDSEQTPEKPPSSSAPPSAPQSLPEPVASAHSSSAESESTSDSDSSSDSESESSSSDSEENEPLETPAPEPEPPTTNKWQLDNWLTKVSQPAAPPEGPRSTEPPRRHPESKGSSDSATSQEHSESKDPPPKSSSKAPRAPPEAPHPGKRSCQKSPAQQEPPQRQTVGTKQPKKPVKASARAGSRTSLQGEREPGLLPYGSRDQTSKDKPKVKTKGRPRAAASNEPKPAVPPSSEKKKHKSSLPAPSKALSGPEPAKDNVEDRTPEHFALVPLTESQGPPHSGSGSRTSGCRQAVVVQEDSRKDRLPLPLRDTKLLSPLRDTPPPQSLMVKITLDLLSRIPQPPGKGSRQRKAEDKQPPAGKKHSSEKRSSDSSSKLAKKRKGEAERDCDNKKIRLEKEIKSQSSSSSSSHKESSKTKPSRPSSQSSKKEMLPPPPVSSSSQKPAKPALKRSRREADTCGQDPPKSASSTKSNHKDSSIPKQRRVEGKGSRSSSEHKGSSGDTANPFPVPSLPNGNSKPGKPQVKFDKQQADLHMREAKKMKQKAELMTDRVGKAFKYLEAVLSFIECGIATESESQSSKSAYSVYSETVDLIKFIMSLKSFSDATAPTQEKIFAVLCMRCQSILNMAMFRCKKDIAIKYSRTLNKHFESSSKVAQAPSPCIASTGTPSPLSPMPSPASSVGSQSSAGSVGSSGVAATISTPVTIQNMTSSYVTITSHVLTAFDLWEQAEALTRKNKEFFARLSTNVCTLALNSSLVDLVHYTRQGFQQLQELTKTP
Assay: co-IP; anti-Flag immunoprecipitation from nuclear extracts of HeLa cells co-transfected with differentially Flag- and HA-tagged AFF1 and AFF4; western blotting (Figure 1A,B)
Conditions: remark: other sources report otherwise

B1: FLAG-tagged AFF1, full length (aa 1-1210), P51825 1-1210 (protein)
chain: T1 chain
With B1 the binding was “no binding”.
